Experimental data from the supplement of paper PMC4604168 (melanoma cell lines).
The other results are listed elsewhere or left out. Many values rest on one well or one pass, so single values are uncertain.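 Imaging used 1,536-well plates; nuclei positive for cleaved PARP by antibody were divided by total DNA-stained nuclei to yield the apoptosis fraction. Doses for screening kept most cells viable, and cell lines differ markedly in resting and induced cleaved-PARP levels.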

Columns and labels:
Assay in all cases: cleaved PARP positive nuclei fraction relative to DMSO control; melanoma cells; higher = more apoptosis
Details in all cases: library dose: low library concentration; 72 h
COLO792 = tested on: COLO792
COLO800 = tested on: COLO800
COLO829 = tested on: COLO829
G361 = tested on: G361
IPC-298 = tested on: IPC-298
IST-MEL1 = tested on: IST-MEL1
LB2518-MEL = tested on: LB2518-MEL
LOXIMVI = tested on: LOXIMVI
MEL-HO = tested on: MEL-HO
MZ2-MEL = tested on: MZ2-MEL
MeWo = tested on: MeWo
RPMI7951 = tested on: RPMI7951
RVH-421 = tested on: RVH-421
SkMel28 = tested on: SkMel28
SkMel2 = tested on: SkMel2
SkMel30 = tested on: SkMel30
SkMel5 = tested on: SkMel5
UACC257 = tested on: UACC257
UACC62 = tested on: UACC62

Compound | cleaved PARP positive nuclei fraction (COLO792) | cleaved PARP positive nuclei fraction (COLO800) | cleaved PARP positive nuclei fraction (COLO829) | cleaved PARP positive nuclei fraction (G361) | cleaved PARP positive nuclei fraction (IPC-298) | cleaved PARP positive nuclei fraction (IST-MEL1) | cleaved PARP positive nuclei fraction (LB2518-MEL) | cleaved PARP positive nuclei fraction (LOXIMVI) | cleaved PARP positive nuclei fraction (MEL-HO) | cleaved PARP positive nuclei fraction (MZ2-MEL) | cleaved PARP positive nuclei fraction (MeWo) | cleaved PARP positive nuclei fraction (RPMI7951) | cleaved PARP positive nuclei fraction (RVH-421) | cleaved PARP positive nuclei fraction (SkMel28) | cleaved PARP positive nuclei fraction (SkMel2) | cleaved PARP positive nuclei fraction (SkMel30) | cleaved PARP positive nuclei fraction (SkMel5) | cleaved PARP positive nuclei fraction (UACC257) | cleaved PARP positive nuclei fraction (UACC62)
C[C@@H]1CCN(C(=O)CC#N)C[C@@H]1N(C)c1ncnc2[nH]ccc12 + CN(C)S(=O)(=O)c1ccc2c(c1)/C(=C/c1cc3c([nH]1)CCCC3)C(=O)N2 [SU6656] (first compound 1 µM, partner dose 0.4 µM) | 75.5% | 42.9% | 177% | 144% | 45.5% | 52.1% | 109% | 94.5% | 145% | 44.6% | 40.4% | 47% | 64.5% | 45.2% | 81.8% | 59% | 71.3% | 33.4% | 54.4%
OCc1c[nH]c2ccccc12 [Indole-3-carbinol] + COc1cc(Nc2ncc(F)c(Nc3ccc4c(n3)NC(=O)C(C)(C)O4)n2)cc(OC)c1OC [Tamatinib] (first compound 0.8 µM, partner dose 0.4 µM) | 214% | 123% | 458% | 106% | 66.7% | 96.4% | 49.9% | 60.9% | 73.2% | 59.6% | 168% | 167% | 319% | 128% | 120% | 75.7% | 100% | 50.6% | 83.1%
CC(C)(C)c1cnc(CSc2cnc(NC(=O)C3CCNCC3)s2)o1 + COc1cc2c(Oc3ccc4[nH]c(C)cc4c3F)ncnc2cc1OCCCN1CCCC1 [cediranib] (first compound 0.01 µM, partner dose 0.4 µM) | 84.1% | 60.2% | 113% | 74.7% | 82.7% | 94.7% | 69.2% | 551% | 70.9% | 116% | 67.4% | 102% | 120% | 64.4% | 82.4% | 61.1% | 147% | 222% | 161%
Cn1nnc2c(C(N)=O)ncn2c1=O [temozolomide] + O=C(Nc1cccc(Cl)c1)Nc1ncc(CCNc2ncnc3ccsc23)s1 [SNS314] (first compound 2 µM, partner dose 0.0008 µM) | 123% | 202% | 97.4% | 123% | 197% | 201% | 96.2% | 25.7% | 88.2% | 52.2% | 141% | 34.1% | 162% | 78.4% | 79.5% | 62.3% | 141% | 76.4% | 72%
Cc1cc(N2CCOCC2)cc2[nH]c(-c3c(NC[C@@H](O)c4cccc(Cl)c4)cc[nH]c3=O)nc12 + Cn1cncc1[C@@](N)(c1ccc(Cl)cc1)c1ccc2c(c1)c(-c1cccc(Cl)c1)cc(=O)n2C [tipifarnib] (first compound 0.2 µM, partner dose 0.01 µM) | 190% | 293% | 42.1% | 184% | 229% | 181% | 60% | 108% | 164% | 131% | 49.6% | 152% | 192% | 123% | 190% | 71.3% | 137% | 106% | 226%
OCc1c[nH]c2ccccc12 [Indole-3-carbinol] + Cn1cncc1[C@@](N)(c1ccc(Cl)cc1)c1ccc2c(c1)c(-c1cccc(Cl)c1)cc(=O)n2C [tipifarnib] (first compound 0.8 µM, partner dose 0.01 µM) | 155% | 70.1% | 112% | 109% | 92.3% | 70.7% | 120% | 153% | 111% | 74.7% | 113% | 68.8% | 76.1% | 131% | 61.7% | 67.4% | 79.2% | 195% | 533%
CO[C@@H]1[C@H](N(C)C(=O)c2ccccc2)C[C@H]2O[C@]1(C)n1c3ccccc3c3c4c(c5c6ccccc6n2c5c31)C(=O)NC4 [Midostaurin] + NCC(=O)Nc1ccc(-n2nc(C(F)(F)F)cc2-c2ccc3c(ccc4ccccc43)c2)cc1 [OSU03012] (first compound 0.08 µM, partner dose 1 µM) | 425% | 41.2% | 76.4% | 147% | 52% | 251% | 94.9% | 68.6% | 73.3% | 84.9% | 201% | 154% | 63.8% | 91.8% | 124% | 244% | 80.8% | 37.2% | 76.9%
C[C@]1(c2nc3c(C(N)=O)cccc3[nH]2)CCCN1 [Veliparib] + Cc1ccc(NC(=O)c2cccc(N(C)C)c2)cc1NC(=O)c1ccc(O)cc1 [ZM336372] (first compound 1.4 µM, partner dose 2 µM) | 55.2% | 27.3% | 49.7% | 96.1% | 108% | 42.7% | 105% | 97.8% | 89.5% | 126% | 61.3% | 299% | 52.1% | 123% | 75.6% | 70.5% | 69.5% | 135% | 197%
